Results reported in PMC9742362.
These are yes or no findings as the source states them, for the method shown. Binding seen in cells or lysates may run through a third protein. A yes stands for co-enrichment or nearness to the bait. Other partners may have been found. For part of these data: Where a sequence is shown, tags or fusion partners need not be part of it.

Protein sequences, listed by entry. Tags and fused reporters are not part of them.
UniProt Q9UJ04: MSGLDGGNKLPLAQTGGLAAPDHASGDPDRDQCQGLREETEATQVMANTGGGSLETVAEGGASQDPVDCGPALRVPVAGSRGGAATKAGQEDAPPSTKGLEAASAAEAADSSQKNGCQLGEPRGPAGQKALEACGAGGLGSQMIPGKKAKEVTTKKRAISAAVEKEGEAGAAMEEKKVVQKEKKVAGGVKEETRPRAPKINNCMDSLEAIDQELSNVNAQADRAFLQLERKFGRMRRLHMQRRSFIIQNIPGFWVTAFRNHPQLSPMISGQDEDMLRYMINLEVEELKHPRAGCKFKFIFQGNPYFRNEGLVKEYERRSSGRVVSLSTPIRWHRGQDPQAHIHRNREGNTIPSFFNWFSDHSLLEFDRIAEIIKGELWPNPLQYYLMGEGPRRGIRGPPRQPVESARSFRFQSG
UniProt P36402: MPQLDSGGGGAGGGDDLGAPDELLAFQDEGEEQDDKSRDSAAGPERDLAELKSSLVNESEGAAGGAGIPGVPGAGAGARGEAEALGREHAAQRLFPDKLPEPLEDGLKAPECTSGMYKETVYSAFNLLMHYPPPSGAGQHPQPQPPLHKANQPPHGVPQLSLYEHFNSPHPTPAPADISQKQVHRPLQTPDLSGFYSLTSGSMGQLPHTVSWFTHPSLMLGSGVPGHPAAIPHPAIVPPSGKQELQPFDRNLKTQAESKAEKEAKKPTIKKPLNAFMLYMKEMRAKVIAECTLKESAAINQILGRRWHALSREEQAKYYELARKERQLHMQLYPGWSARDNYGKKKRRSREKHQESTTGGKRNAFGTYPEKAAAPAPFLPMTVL
UniProt Q9NQB0: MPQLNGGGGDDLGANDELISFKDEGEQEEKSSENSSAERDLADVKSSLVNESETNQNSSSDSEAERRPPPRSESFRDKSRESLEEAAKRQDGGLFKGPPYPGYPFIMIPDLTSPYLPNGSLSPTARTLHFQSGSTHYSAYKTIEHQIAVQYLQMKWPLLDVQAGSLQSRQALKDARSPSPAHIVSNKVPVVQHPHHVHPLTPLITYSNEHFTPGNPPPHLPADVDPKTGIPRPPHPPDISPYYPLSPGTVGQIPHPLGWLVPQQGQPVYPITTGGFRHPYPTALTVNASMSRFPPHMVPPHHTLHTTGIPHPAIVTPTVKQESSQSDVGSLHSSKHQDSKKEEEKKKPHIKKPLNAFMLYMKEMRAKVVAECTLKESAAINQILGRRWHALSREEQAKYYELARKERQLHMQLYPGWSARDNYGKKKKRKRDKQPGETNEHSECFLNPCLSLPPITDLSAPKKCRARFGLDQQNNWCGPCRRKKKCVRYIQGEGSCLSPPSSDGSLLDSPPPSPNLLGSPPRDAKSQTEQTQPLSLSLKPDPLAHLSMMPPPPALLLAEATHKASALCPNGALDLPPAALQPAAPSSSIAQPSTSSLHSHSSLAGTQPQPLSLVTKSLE

How the values were obtained:
Assay in all cases: affinity purification with mass spectrometry; differentiated HepaRG cells transiently transfected with IRES-TSPYL1, 2 or 4 plasmids for 48 h; immunoprecipitation with Flag antibody, normal mouse IgG as negative control; eluted in 2X Laemmli buffer, SDS-PAGE, gel slices analysed by mass spectrometry
[1] = molecular target: T1, 3XFLAG-TSPYL2 (testis-specific Y-encoded-like protein 2) (human) (UniProt Q9H2G4)
T1 sequence: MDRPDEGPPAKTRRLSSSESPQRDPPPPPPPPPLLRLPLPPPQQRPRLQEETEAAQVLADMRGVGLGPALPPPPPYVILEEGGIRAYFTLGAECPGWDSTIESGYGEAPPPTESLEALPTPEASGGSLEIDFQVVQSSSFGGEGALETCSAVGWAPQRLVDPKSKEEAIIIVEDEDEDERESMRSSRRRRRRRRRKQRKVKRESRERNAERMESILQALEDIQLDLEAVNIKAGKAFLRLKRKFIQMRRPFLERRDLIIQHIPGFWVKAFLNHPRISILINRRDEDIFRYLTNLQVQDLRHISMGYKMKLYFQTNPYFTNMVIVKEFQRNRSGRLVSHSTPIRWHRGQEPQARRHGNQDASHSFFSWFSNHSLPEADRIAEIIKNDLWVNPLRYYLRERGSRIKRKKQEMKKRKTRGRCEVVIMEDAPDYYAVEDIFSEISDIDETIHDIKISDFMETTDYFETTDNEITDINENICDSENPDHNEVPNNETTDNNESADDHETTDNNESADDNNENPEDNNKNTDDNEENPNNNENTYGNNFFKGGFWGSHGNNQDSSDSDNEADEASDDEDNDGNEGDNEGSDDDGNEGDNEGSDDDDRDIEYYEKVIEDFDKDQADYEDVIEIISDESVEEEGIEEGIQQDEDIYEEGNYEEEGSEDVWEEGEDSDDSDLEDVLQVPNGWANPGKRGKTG

[2] = molecular target: 3XFLAG-TSPYL1 (testis-specific Y-encoded-like protein 1) (human) (UniProt Q9H0U9)
[3] = molecular target: 3XFLAG-TSPYL4 (testis-specific Y-encoded-like protein 4) (human) (UniProt Q9UJ04)

Measured: binding

TCF7 (from UniProt P36402 1-384)
binds: all assays above

TCF7L2 (endogenous) (from UniProt Q9NQB0 1-619)
binds: all assays above
